# According to the supplement of paper PMC12259267, “Disruption of the KLHL37–N-Myc complex restores N-Myc degradation and arrests neuroblastoma growth in mouse models” (The Journal of Clinical Investigation, 2025):
# Where a name gives a salt, the structure may show the parent alone. The list shows a part of the results. Single values are uncertain, as repeats are few or missing.
# Tested on: SK-N-BE(2)
# Test: inhibition of N-Myc immunofluorescence signal per cell relative to control (fraction); higher = stronger N-Myc protein reduction
# Details: 1 µM; 9 h
row,SMILES,inhibition of N-Myc immunofluorescence signal per cell
1,CCCC(CCC)C(=O)O [Valproic acid],-0.11
2,CC(C)c1c(-c2ccccc2)nc2c(C#N)c[nH]n2c1=O,0.0294
3,Nc1cccc2c1CN(C1CCC(=O)NC1=O)C2=O (stereo not given) [Lenalidomide (hemihydrate)],0.34
4,O=C(CCCCCCC(=O)N/N=C/c1ccc(N(c2ccccc2)c2ccccc2)cc1)NO,0.0108
5,O=C(CCCCCCNC(=O)c1cnc(N(c2ccccc2)c2ccccc2Cl)nc1)NO [Citarinostat],-0.00287
6,c1cncc(-c2cn[nH]n2)c1,0.265
7,C=CS(=O)(=O)Nc1ccccc1-c1ccc(C(=O)N2CCC(O)(Cn3cnc4c(cnn4C)c3=O)CC2)cc1,0.101
8,CC(=O)c1cc([N+](=O)[O-])c(Sc2ccc(F)cc2F)s1,0.00338
9,CN(C)c1ccc(C(=O)NCCCCCCC(=O)NO)cc1,0.123
10,O=C1/C(=C/c2ccc(Cl)c(Cl)c2)CNC/C1=C\c1ccc(Cl)c(Cl)c1,0.241
11,Nc1c(S(=O)(=O)c2ccccc2)c2nc3ccccc3nc2n1-c1ccc(F)cc1,0.129
12,O=C(O)C(S)=Cc1c[nH]c2ccc(F)cc12,0.077
13,COc1cc2nc(N3CCCC3)nc(NCCCCCN3CCCC3)c2cc1OC,-0.286
14,O=C1CCC(N2C(=O)c3ccc(F)cc3C2=O)C(=O)N1 (stereo not given) [Thalidomide 5-fluoride],0.166
15,Cc1cc(C)c(CNC(=O)c2cc(-c3ccc(N4CCN(C)CC4)nc3)cc3c2c(C)cn3C(C)C)c(=O)[nH]1,0.0597
16,COc1cc2c(NC3CCN(C)CC3)cc(-c3ccc(C)o3)nc2cc1OCCCN1CCCC1,0.0792
17,COc1cc(C(=O)Nc2ccccc2-c2cn3c(CN4CCNCC4)csc3n2)cc(OC)c1OC,-0.00817
18,NS(=O)(=O)OC[C@@H]1C[C@@H](n2ccc3c(N[C@H]4CCc5ccccc54)ncnc32)C[C@@H]1O [Pevonedistat hydrochloride],-0.371

# A second format for 7 compounds above:
row	SMILES	inhibition of N-Myc immunofluorescence signal per cell
3	Nc1cccc2c1CN(C1CCC(=O)NC1=O)C2=O (stereo not given) [Lenalidomide (hemihydrate)]	0.34
4	O=C(CCCCCCC(=O)N/N=C/c1ccc(N(c2ccccc2)c2ccccc2)cc1)NO	0.0108
5	O=C(CCCCCCNC(=O)c1cnc(N(c2ccccc2)c2ccccc2Cl)nc1)NO [Citarinostat]	-0.00287
6	c1cncc(-c2cn[nH]n2)c1	0.265
7	C=CS(=O)(=O)Nc1ccccc1-c1ccc(C(=O)N2CCC(O)(Cn3cnc4c(cnn4C)c3=O)CC2)cc1	0.101
8	CC(=O)c1cc([N+](=O)[O-])c(Sc2ccc(F)cc2F)s1	0.00338
9	CN(C)c1ccc(C(=O)NCCCCCCC(=O)NO)cc1	0.123

# Going on with the list:

row,SMILES,inhibition of N-Myc immunofluorescence signal per cell
1,O=C(O)CCNc1cc(N2CCc3ccccc3CC2)nc(-c2ccccn2)n1,-0.281
2,O=C(O)COc1ccc(Br)cc1/C=C1\SC(=S)N(Cc2cccnc2)C1=O [Skp2 Inhibitor C1],0.267
3,CCn1c2ccccc2c2cc(CNCc3ccccc3OC)ccc21 [HLCL-61 (hydrochloride)],-0.287
4,Nc1ccccc1NC(=O)c1ccc(CNc2nccc(-c3cccnc3)n2)cc1 [Mocetinostat],0.0174
5,CC(NC(=O)c1ccccc1/N=C/c1c(O)ccc2ccccc12)c1ccccc1 (stereo not given) [Sirtinol],0.027
6,O=C(O)c1ccc(N2N=C(Cc3ccccc3)C(=Cc3ccc(-c4ccccc4F)o3)C2=O)cc1,0.26
7,CC1(N)CCN(c2cnc(-c3cccc(Cl)c3Cl)c(N)n2)CC1 [SHP099 (hydrochloride)],0.0544
8,Cc1ccc(C(=O)Nc2cnc(N3CCC(C(N)=O)(N4CCCCC4)CC3)c(C(=O)O)c2)cc1,0.122
9,CC(C)C[C@H](NC(=O)CNC(=O)c1cc(Cl)ccc1Cl)B(O)O [Ixazomib],-0.38
10,O=C(NCC(=O)N1CCCC1)Nc1ccc2cnccc2c1,0.0432
11,NCc1cccc(CNc2ncnc3c(N4CCN(Cc5ccccc5)CC4)ncnc23)c1,0.17
12,Cc1cc(C)cc(C(=O)NOCCCCCC(=O)NO)c1,-0.181
13,CC[C@H](C)n1cc(C)c2c(C(=O)NCc3c(C)cc(C)[nH]c3=O)cc(-c3ccc(N4CCNCC4)nc3)cc21,-0.136
14,CCCc1ccc(OCC(=O)N(Cc2nc(-c3cccnc3)no2)C(C)C)cc1,0.00478
15,"Cc1ncsc1-c1ccc(CNC(=O)[C@@H]2C[C@H](O)CN2C(=O)[C@@H](N)C(C)(C)C)cc1 [(S,S,S)-AHPC (hydrochloride)]",-0.031
16,CC(=O)Nc1ccc(C(=O)Nc2ccccc2N)cc1 [Tacedinaline],0.0181
17,O=C1CCC(N2Cc3cc(CNC(=O)C(F)(F)c4ccc(Cl)cc4)ccc3C2=O)C(=O)N1 (stereo not given) [Cereblon modulator 1],-0.0887
